Measurements: paper PMC8237258 (Journal of Medicinal Chemistry, 2021)
Bridges are numbered along the chain shown (N, C = ends).

Experiments:
[1] = general procedure: Fmoc solid-phase peptide synthesis; Rink amide resin (0.74 mmol/g) or freshly prepared 2-chlorotrityl hydrazine resin; HCTU/DIEA; settings: whole synthesis, scale of the general procedure 0.1 mmol
[2] = Fmoc solid-phase peptide synthesis; 2-chlorotrityl hydrazine resin; HCTU/DIEA; settings: whole synthesis, overall, scale of the general procedure 0.1 mmol

cyclo(ACTGCYCCEYCCNP) (disulfide 2-8, 5-11, 7-12; SMILES C[C@@H]1NC(=O)[C@@H]2CCCN2C(=O)[C@H](CC(N)=O)NC(=O)[C@@H]2CSSC[C@@H]3NC(=O)[C@H](Cc4ccc(O)cc4)NC(=O)[C@@H]4CSSC[C@H](NC(=O)[C@H](Cc5ccc(O)cc5)NC(=O)[C@H](CCC(=O)O)NC(=O)[C@H](CSSC[C@H](NC1=O)C(=O)N[C@@H]([C@@H](C)O)C(=O)NCC(=O)N4)NC3=O)C(=O)N2)
final purity (method not given) [1]: >95% purity
isolated yield [2]: 4%
